Among all 360,000 compounds or so, about 10,000 (2.8%) were called active. The shares of active, inactive and inconclusive entries below differ from those in the screen. Calls come from the whole dose curve; as a rule, active = well fitted inhibition curve with a large enough effect; inconclusive = small, poorly fitted or top-dose-only effect; inactive = flat fitted curve, though single readings scatter. Where the call is inconclusive, the potency comes from a doubtful curve fit.
Molecular target: Serine/threonine-protein kinase PLK1 (Homo sapiens) (UniProt P53350)
Assay: qHTS for Inhibitors of PLK1-PDB (polo-like kinase 1 - polo-box domain): Primary Screen; note: nearly all actives have a fitted effect of over 65% in size; for max response, negative = inhibition: series mostly up to about 57 µM
Conditions: Plk1 PBD binding of FITC phosphopeptide, fluorescence polarization
% is set by controls: 0 for no effect and ±100 for the full control effect; potency is the fitted concentration of half-maximal effect.

Sequences of proteins named here, by UniProt entry; tags and fusion partners are left off.
UniProt P53350, whole entry, looked up: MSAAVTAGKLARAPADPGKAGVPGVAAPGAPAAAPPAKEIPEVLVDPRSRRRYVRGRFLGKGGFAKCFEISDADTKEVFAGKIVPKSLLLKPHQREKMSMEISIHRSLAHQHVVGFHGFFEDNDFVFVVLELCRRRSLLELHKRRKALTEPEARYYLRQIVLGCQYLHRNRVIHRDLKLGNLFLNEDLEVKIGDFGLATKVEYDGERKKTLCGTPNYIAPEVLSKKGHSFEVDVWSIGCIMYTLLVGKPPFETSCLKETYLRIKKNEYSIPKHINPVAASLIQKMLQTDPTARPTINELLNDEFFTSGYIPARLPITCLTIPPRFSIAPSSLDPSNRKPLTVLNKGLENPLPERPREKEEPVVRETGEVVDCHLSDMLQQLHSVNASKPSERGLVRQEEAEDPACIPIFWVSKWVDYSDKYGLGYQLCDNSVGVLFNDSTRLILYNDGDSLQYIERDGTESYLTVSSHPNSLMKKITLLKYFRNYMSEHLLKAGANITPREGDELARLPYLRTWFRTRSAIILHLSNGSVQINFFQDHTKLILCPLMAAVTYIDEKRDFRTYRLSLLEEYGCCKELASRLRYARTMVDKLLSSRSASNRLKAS

Row | SMILES | Potency | max response, negative = inhibition
1 | CC1CCc2c(C(=O)Nc3ccc(N4CCOCC4)cc3)csc2C1 (centres undefined) | inconclusive: 29.9 µM [inhibitor, single point] | 
2 | CC(=O)c1cccc(N=C2NC(=O)C(CO)(CO)S2)c1 | inconclusive: 29.9 µM [inhibitor, single point] | 
3 | CCCC(=O)Nc1ccc(NC(=O)c2cc3ccccc3o2)c(OC)c1 |  | inactive: -16.4%
4 | COc1ccc(C=CC(=O)c2cc(O)ccc2O)cc1 |  | inactive: -2.41%
5 | O=S(=O)(NNC(=S)NCC1CCCO1)c1cc(Cl)ccc1Cl (centres undefined) | inconclusive: 11.9 µM [inhibitor, partial curve] | 
6 | CC(=O)OCC(=O)Nc1ccc(SC(F)F)cc1 | inconclusive: 26.7 µM [inhibitor, single point] | 
7 | CCOCCCNC(=O)CN1C(=O)COc2ccc(S(=O)(=O)N3CCC(C)CC3)cc21 | inconclusive: 5.32 µM [inhibitor, partial curve] | 
8 | CCCCN(CC)Cc1c(O)ccc2c(-c3ccccc3)cc(=O)oc12 | active: 26.7 µM | 
9 | Cc1ccc(C(=O)N/C(=C\c2cccs2)C(=O)NCCc2ccccn2)cc1C | inconclusive: 26.7 µM [inhibitor, partial curve] | 
10 | CCc1c(C)sc(NC(=O)c2cc(C(C)C)on2)c1C#N | inconclusive: 26.7 µM [inhibitor, partial curve] | 
11 | CC(=O)c1c(N)nc2n(c1=O)CCCCC2 |  | inconclusive: -32.6% [inhibitor]
12 | CCCN(CCC)C(=O)CSc1nc2c(sc(=S)n2-c2ccc(OCC)cc2)c(=O)[nH]1 | inconclusive: 29.9 µM [inhibitor, single point] | 
13 | COc1cccc(-c2n[nH]c(=S)n2Cc2ccco2)c1 | inconclusive: 23.8 µM [inhibitor, partial curve] | 
14 | OC(CN1CCOCC1)CN1CCOCC1 |  | inactive: -2.28%
15 | CCS(=O)(=O)Nc1cccc(-c2cn3c(n2)SCC3)c1 | inconclusive: 26.7 µM [inhibitor, partial curve] | 
16 | CCc1ccc(C=C2SC(=S)N(CCCC(=O)Nc3ccc(C(=O)O)cc3)C2=O)cc1 | inconclusive: 29.9 µM [inhibitor, single point] | 
17 | Cc1ccc(SCCNC(=S)Nc2ccccc2)cc1 |  | inactive: -4.54%
18 | Cc1ccc(N2CC(C(=O)NCCS(=O)(=O)N3CCN(c4ccccc4F)CC3)CC2=O)cc1 (centres undefined) | active: 10.6 µM | 
19 | COc1cccc2c1C(=O)c1c(O)c3c(c(O)c1C2=O)C[C@@](O)(C(=O)CO)C[C@@H]3O[C@H]1C[C@H](N)[C@H](O)[C@H](C)O1 | inconclusive: 11.9 µM [inhibitor, partial curve] | 
20 | O=C(CSc1ccc([N+](=O)[O-])cc1)c1ccccc1 |  | inconclusive: -32.5% [inhibitor]
21 | COc1ccc(-c2cccc(C3CC=CC4C3C(=O)N(Cc3ccccc3)C4c3ccc(OC)c(Cl)c3)c2)cc1 (centres undefined) | inconclusive: 23.8 µM [inhibitor, partial curve] | 
22 | Cc1sc(NC(=O)CSc2nnc(C)c(=O)[nH]2)c(C#N)c1C |  | inconclusive: -33.7% [inhibitor]
23 | COc1ccc([C@H]2C[C@@H](O)[C@H](n3cc(C4CC4)nn3)CN2C(=O)c2cccs2)cc1 |  | inactive: -4.05%

Row | SMILES | Potency | max response, negative = inhibition
24 | Cc1[nH]c(=O)nc(SCc2ccc(Cl)c(Cl)c2)c1C#N | inconclusive: 23.8 µM [inhibitor, partial curve] | 
25 | CC(C)CN(C(=O)COC(=O)Cc1c[nH]c2ccccc12)C1CCS(=O)(=O)C1 (centres undefined) | active: 26.7 µM | 
26 | O=C(Cc1ccc(Cl)cc1)Nc1ncc([N+](=O)[O-])s1 | inconclusive: 18.9 µM [inhibitor, partial curve] | 
27 | O=C1C2C(c3ccccc3)(C(=O)N1c1ccc(Cl)cc1)C2(c1ccccc1)c1ccccc1 (centres undefined) | inconclusive: 23.8 µM [inhibitor, single point] | 
28 | Cc1cc(=O)n2nc(N3CCCC(C(=O)NC4CCC(C)CC4)C3)sc2n1 (centres undefined) |  | inactive: -10.6%
29 | COC(=O)c1ccccc1NC(=S)NC(=O)COc1ccccc1 | inconclusive: 26.7 µM [inhibitor, partial curve] | 
30 | COC(=O)c1cc(S(=O)(=O)Nc2cc(OC)cc(OC)c2)c[nH]1 | inconclusive: 33.6 µM [inhibitor, partial curve] | 
31 | O=C(CCN1CCCCC1)Nc1ccc(Br)cc1 | inconclusive: 23.8 µM [inhibitor, partial curve] | 
32 | COc1ccccc1Cn1c(=S)[nH]c2cc(C(=O)N3CCCC(C)C3)ccc2c1=O (centres undefined) |  | inactive: -1.75%
33 | CC1C/C(=C/c2ccccn2)C(=O)/C(=C/c2ccccn2)C1 (centres undefined) | inconclusive: 21.2 µM [inhibitor, partial curve] | 
34 | CC(=O)Nc1ccc(S(=O)(=O)Nc2nnc(C(C)C)s2)cc1 |  | inconclusive: -38.8% [inhibitor]
35 | CN1C(=O)c2ccc(NC(=O)c3c(F)c(F)c(F)c(F)c3F)cc2C1=O | inconclusive: 26.7 µM [inhibitor, partial curve] | 
36 | Cc1nc2sc(C(N)=O)c(N)c2c(C)c1CC(=O)c1ccccc1 |  | inactive: -17.1%
37 | O=C(O)CCN1C(=O)/C(=C\c2cccc(Oc3ccccc3)c2)SC1=S | active: 16.8 µM | 
38 | O=C(NCc1ccco1)c1cccc2c1C(=O)c1ccc(N3CCC(Cc4ccccc4)CC3)cc1S2(=O)=O | inconclusive: 26.7 µM [inhibitor, single point] | 
39 | COc1ccc(C(=O)O)cc1NC(=S)NC(=O)/C=C/c1ccc(C(C)C)cc1 | inconclusive: 23.8 µM [inhibitor, partial curve] | 
40 | O=C(O)c1cccc(-n2cccc2/C=C2\NC(=O)N(Cc3ccc(F)cc3)C2=O)c1 | inconclusive: 29.9 µM [inhibitor, single point] | 
41 | COC(=O)c1sc(-c2ccc(C(C)(C)C)cc2)cc1NC(=O)/C=C/C(=O)O | inconclusive: 26.7 µM [inhibitor, single point] | 
42 | CCc1cc(C(c2ccccc2OC)N2CCOCC2)c(NC(=O)c2ccccc2)s1 (centres undefined) | inconclusive: 26.7 µM [inhibitor, partial curve] | 
43 | COC(=O)c1ccc(OC(=O)C2CC(=O)N(c3ccc(C)cc3C)C2)cc1 (centres undefined) |  | inconclusive: -31.8% [inhibitor]
44 | COC(=O)c1nc(NC(=O)c2ccccc2Cl)n[nH]1 | inconclusive: 26.7 µM [inhibitor, partial curve] | 
45 | Cn1cc(Cl)c(/C=C(\C#N)S(=O)(=O)c2ccccc2)n1 | inconclusive: 21.2 µM [inhibitor, partial curve] | 
46 | CC(Oc1cccc(Cl)c1)C(=O)Nc1ccccc1C(=O)N1CCCCC1 (centres undefined) |  | inactive: -14.3%

Molecules from the list above containing a nitro group on carbon, in the order listed:
Row | SMILES | Potency | max response, negative = inhibition
20 | O=C(CSc1ccc([N+](=O)[O-])cc1)c1ccccc1 |  | inconclusive: -32.5% [inhibitor]
26 | O=C(Cc1ccc(Cl)cc1)Nc1ncc([N+](=O)[O-])s1 | inconclusive: 18.9 µM [inhibitor, partial curve] | 

More compounds follow:

Row | SMILES | Potency | max response, negative = inhibition
47 | COCCCNC(=O)c1cc2cc3cc(OC)ccc3nc2o1 | active: 21.2 µM | 
48 | C=CCc1ccccc1OCCNCCCOC |  | inactive: -6.09%
49 | Cc1cc(N2C(=O)C(O)=C(C(=O)c3cc4ccccc4o3)C2c2cccc(Cl)c2)no1 (centres undefined) | inconclusive: 23.8 µM [inhibitor, single point] | 
50 | Cc1cc(OCCSc2nnc(-c3cccs3)n2C)ccc1Cl | inconclusive: 15 µM [inhibitor, partial curve] | 
51 | CCc1ccc(Nc2nc3ccccc3c(=O)s2)cc1 |  | inactive: -4.18%
52 | S=C(c1cn(CCOc2ccccc2)c2ccccc12)N1CCCC1 | inconclusive: 28.2 µM [inhibitor, partial curve] | 
53 | CCN(C(=S)NC(=O)C1CC1)c1ccccc1 |  | inconclusive: -30.8% [inhibitor]
54 | O=C(Nc1ccncc1)C1CC(=O)N(c2ccccc2)C1 (centres undefined) | inconclusive: 29.9 µM [inhibitor, single point] | 
55 | COCCn1c(SCC(=O)Nc2cccc(S(N)(=O)=O)c2)nc2cc(Cl)ccc2c1=O | active: 7.52 µM | 
56 | Cc1c(C(=O)N2CCCCC2)c(S(=O)(=O)N2CCC(C)CC2)c(C)n1C | active: 21.2 µM | 
57 | Cc1cc(C)c(NC(=O)CNC(=O)c2cc([N+](=O)[O-])ccc2N2CCOCC2)c(C)c1 |  | inactive: -0.266%
58 | Cc1ccc(-c2ccc(/C=C3\C(=O)ON=C3c3ccccc3)o2)c([N+](=O)[O-])c1 | active: 1.68 µM | 
59 | S=c1[nH]nc(NCCCN2CCOCC2)s1 | active: 11.9 µM | 
60 | Cc1ccc(C2C(C(N)=S)=C(N)OC3=C2C(=O)CC(C)(C)C3)cc1 (centres undefined) |  | inactive: 0.844%
61 | CN(C)c1oc(/C=C/c2cccs2)nc1S(=O)(=O)c1ccccc1 | inconclusive: 37.7 µM [inhibitor, single point] | 
62 | COc1ccc(S(=O)(=O)N(CC(N)=O)C2CCCCC2)cc1Cl | active: 11.9 µM | 
63 | O=C(O)CCCCCN1C(=O)C(O)=C(C(=O)/C=C/c2ccccc2)C1c1ccccc1[N+](=O)[O-] (centres undefined) | active: 33.6 µM | 
64 | O=c1oc(-c2ccccc2Cl)nc2ccsc12 | inconclusive: 21.2 µM [inhibitor, partial curve] | 
65 | CC1CCN(C(=O)CSc2nnc(Cc3cccn3C)n2-c2ccc(F)cc2)CC1 | inconclusive: 21.2 µM [inhibitor, single point] | 
66 | CCOC(=O)CC1=C(C#N)C(c2cccnc2)C(C(=O)OCC)=C(N)O1 (centres undefined) | inconclusive: 9.47 µM [inhibitor, partial curve] | 
67 | Nc1c(NCCC2=CCCCC2)c(=O)[nH]c(=O)n1Cc1ccccc1 | inconclusive: 16.8 µM [inhibitor, partial curve] | 
68 | CCc1n[nH]c(=S)n1/N=C/c1cc(OC)cc([N+](=O)[O-])c1O | inconclusive: 33.6 µM [inhibitor, partial curve, poor fit] | 
69 | COc1ccc(NC(=O)/C=C/c2ccc(Br)o2)cn1 | inconclusive: 23.8 µM [inhibitor, partial curve] | 

Individual results from the list.
In Potency, Cc1c(C(=O)N2CCCCC2)c(S(=O)(=O)N2CCC(C)CC2)c(C)n1C is entered as active: 21.2 µM
In Potency, O=C(CCN1CCCCC1)Nc1ccc(Br)cc1 is entered as inconclusive: 23.8 µM [inhibitor, partial curve]
In Potency, CC(C)CN(C(=O)COC(=O)Cc1c[nH]c2ccccc12)C1CCS(=O)(=O)C1 (centres undefined) is entered as active: 26.7 µM

— PubChem BioAssay AID720504 (National Center for Advancing Translational Sciences (NCATS), 2013)
